Source: PubChem BioAssay AID1508600 (Functional Genomics Laboratory (NCATS/FGL), 2020)
Out of some 53,000 sequences screened, about 3,700 (7%) were called active.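 How the source made its calls: active means gene knockdowns whose robust z-score for IL-1 alpha signal is at least 2 or at most -2, so actives lie on both sides; inactive means the rest.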 Some of the results follow.

Assay: Components of the Cytosolic LPS Sensing Pathway: Gene Identification via Genome-wide siRNA Screen;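 further: robust z of the log signal after scaling to non-targeting control siRNA wells of the plate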
Details: RAW264.7 macrophages, IL-1a HTRF, actives lie on both sides, screened at 100 nM (by protocol), cells primed 5 h with Pam3CSK4 first
Procedure, shortened: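 Three distinct siRNAs per gene were tested singly at 100 nM in RAW264.7 macrophages. Following Pam3CSK4 priming and 24 hour LipidA transfection, IL-1a secretion was read by HTRF.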

Sequence	z-score
GAAGGUGAAGUGCAGGAAGTT against Fxyd7	inactive: -0.081
GCCUUUGAUUUGAUUUCAUTT against Olfr1047	inactive: 0.896
GGUCGUCUUUUAAGAGUUUTT against Ccdc71l	active: 3.03
GGCUGACUUUCUGUCACAGTT against Olfr655	inactive: 1.03
GGAUAAUAGGAACAAUCUGTT against Sval1	inactive: 0.207
GGCAUGAAGUGAUCAAUAUTT against Gsto2	inactive: -0.112
GCCAAUGACCCAAAUUCUATT against Ppip5k1	inactive: 0.812
GGUUUGAAUUCAAGUUCAUTT against Klhl5	inactive: 0.616
GCAGUGUAAUGUGGCCUACTT against Rorc	inactive: 0.682
CCCAGAUGAACAAAUGACCTT against Tceanc	inactive: 0.582
GCCAAUGAGAGUAGGAAAGTT against Elovl3	inactive: 1.43
CCAAGUCUAAUGUUUACAATT against Slc38a7	inactive: -0.333
GGUGCAAGAUCAAGAACUGTT against C1ra	active: 2.78
GGAAGCUAAGAAGAUGGAGTT against Ripk4	inactive: 1.2
CCUAAAGCUUGGCAACCCATT against Vapb	inactive: -1.15
GGAGUUUGGCGAAGACCUATT against Ice1	inactive: -0.472
GGAUCUGACAUGUUGUAUATT against Fshr	inactive: -0.792
GGCUACAGCCGUCAAAGAUTT against R74862	inactive: -0.091
CCAUUGAGAUCAGCGACAUTT against Abtb2	inactive: -0.748
GGCAGUUUGUUAAUGAAUGTT against Pcsk1	inactive: -0.901
GGUAGAUUAGCUGAUCCCATT against 2310057J18Rik	inactive: -0.308
GCCGUAGUUAAGGUAUCUGTT against Btnl10	inactive: -1.82
GGAAAAAUUUGAAGCAGGATT against Coa6	inactive: -0.734
CGUCAACAGGUUUGCUGUGTT against Gbx1	inactive: -1.47
CGUGAGAGAUACUUUUUAGTT against Rps6ka5	inactive: -0.751
GGUGCUGAAGAUGCUGACGTT against Zfp503	inactive: -1.46
GGACUGGUUUUUUUUUUGUTT against Denn2b	inactive: 0.236
GGCUUUUUCCACAUGUGCCTT against Olfr514	active: -2.29
GCUUUGCAAUUCACAGGGATT against Scgb1b27	inactive: -1.76

Part of the list above, comma-delimited:
Sequence,z-score
GGAUCUGACAUGUUGUAUATT against Fshr,inactive: -0.792
GGCUACAGCCGUCAAAGAUTT against R74862,inactive: -0.091
